Measurements taken from paper PMC6753376.
No constants are given. Whether binding was seen depends on the method and setting. Binding seen in cells or lysates may run through a third protein. Some entries that bind do so weakly or less than the wild type.

Sequences of proteins named here, by UniProt entry; tags and fusion partners are left off.
UniProt P61201: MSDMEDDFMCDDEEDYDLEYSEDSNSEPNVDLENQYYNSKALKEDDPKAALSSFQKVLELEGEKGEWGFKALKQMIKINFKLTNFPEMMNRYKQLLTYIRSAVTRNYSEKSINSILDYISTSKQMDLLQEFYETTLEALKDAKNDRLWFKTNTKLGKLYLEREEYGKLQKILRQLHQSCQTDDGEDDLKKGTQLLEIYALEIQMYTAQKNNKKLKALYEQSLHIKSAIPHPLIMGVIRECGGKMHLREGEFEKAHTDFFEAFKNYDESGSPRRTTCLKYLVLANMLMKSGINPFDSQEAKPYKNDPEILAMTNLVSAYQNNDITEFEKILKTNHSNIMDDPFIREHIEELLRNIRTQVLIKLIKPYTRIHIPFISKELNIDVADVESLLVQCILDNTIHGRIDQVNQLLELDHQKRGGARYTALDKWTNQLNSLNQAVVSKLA
UniProt Q15003: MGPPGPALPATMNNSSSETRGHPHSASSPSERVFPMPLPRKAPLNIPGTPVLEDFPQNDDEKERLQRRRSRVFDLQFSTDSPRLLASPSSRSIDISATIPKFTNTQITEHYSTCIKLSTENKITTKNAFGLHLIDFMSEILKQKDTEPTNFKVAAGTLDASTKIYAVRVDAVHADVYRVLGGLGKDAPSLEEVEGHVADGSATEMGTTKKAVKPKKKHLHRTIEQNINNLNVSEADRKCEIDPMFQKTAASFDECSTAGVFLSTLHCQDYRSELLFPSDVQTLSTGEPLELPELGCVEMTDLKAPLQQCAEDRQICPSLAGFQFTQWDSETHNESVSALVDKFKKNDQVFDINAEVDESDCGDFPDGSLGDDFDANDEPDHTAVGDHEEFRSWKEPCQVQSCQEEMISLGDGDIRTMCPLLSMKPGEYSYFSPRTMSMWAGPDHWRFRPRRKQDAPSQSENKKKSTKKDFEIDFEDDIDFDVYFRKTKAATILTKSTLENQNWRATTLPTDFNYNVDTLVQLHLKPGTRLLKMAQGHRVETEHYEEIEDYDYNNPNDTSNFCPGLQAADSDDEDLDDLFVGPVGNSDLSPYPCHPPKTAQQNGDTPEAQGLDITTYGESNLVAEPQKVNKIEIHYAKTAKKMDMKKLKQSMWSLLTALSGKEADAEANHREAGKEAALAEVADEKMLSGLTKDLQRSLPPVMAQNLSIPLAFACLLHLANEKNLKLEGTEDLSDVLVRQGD
UniProt P46940: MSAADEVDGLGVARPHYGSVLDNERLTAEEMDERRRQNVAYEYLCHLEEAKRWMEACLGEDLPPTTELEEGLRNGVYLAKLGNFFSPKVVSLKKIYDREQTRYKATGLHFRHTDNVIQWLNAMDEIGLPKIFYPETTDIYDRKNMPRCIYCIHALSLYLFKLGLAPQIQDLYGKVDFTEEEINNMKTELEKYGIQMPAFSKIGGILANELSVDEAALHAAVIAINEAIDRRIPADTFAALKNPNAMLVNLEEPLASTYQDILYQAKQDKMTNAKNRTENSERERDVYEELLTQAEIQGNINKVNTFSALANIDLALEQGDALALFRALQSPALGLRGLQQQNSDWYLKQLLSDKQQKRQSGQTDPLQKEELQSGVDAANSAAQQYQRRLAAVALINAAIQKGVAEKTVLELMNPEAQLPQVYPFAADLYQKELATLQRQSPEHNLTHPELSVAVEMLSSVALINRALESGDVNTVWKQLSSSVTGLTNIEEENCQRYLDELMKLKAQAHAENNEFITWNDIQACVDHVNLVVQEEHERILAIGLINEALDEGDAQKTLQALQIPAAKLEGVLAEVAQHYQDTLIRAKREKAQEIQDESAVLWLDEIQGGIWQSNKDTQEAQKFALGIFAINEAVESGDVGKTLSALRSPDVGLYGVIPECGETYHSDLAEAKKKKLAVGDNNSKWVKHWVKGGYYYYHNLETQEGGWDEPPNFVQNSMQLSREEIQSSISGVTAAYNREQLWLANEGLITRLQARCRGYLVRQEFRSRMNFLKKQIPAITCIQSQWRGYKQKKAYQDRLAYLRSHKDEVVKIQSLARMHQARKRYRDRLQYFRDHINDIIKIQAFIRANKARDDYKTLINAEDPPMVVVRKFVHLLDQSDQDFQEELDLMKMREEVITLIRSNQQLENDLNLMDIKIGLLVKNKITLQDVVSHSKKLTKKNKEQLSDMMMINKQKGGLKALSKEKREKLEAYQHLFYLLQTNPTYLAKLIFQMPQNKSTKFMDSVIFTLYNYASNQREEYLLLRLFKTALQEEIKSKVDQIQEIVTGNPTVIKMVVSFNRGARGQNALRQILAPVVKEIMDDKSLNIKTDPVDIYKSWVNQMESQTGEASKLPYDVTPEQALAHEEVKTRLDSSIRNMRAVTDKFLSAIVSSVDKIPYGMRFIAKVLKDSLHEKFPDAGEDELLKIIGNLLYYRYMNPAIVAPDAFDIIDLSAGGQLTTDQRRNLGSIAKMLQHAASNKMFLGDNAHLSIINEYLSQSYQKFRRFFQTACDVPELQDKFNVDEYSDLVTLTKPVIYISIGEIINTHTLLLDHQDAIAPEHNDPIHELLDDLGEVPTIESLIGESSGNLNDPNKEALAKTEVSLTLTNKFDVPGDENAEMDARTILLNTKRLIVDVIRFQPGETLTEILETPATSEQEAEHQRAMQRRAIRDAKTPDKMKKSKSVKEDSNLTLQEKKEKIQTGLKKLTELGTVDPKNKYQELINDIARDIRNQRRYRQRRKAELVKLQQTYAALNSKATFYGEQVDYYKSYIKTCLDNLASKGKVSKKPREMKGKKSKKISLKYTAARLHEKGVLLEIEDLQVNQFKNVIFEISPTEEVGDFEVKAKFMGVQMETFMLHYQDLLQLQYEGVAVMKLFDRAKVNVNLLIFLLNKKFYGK
UniProt Q06323: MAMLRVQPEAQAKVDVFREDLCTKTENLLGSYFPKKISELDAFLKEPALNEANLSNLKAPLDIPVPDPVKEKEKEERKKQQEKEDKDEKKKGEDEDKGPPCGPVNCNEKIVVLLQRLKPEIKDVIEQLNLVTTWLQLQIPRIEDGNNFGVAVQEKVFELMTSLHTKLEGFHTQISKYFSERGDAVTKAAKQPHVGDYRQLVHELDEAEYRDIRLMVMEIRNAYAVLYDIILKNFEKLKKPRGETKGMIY
UniProt P08579: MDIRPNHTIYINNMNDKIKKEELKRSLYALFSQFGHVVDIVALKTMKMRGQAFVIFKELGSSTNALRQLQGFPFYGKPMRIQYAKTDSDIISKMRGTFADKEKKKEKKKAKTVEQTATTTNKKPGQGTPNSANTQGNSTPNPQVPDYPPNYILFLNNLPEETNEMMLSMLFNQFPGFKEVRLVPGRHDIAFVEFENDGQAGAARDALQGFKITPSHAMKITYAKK
UniProt Q13098: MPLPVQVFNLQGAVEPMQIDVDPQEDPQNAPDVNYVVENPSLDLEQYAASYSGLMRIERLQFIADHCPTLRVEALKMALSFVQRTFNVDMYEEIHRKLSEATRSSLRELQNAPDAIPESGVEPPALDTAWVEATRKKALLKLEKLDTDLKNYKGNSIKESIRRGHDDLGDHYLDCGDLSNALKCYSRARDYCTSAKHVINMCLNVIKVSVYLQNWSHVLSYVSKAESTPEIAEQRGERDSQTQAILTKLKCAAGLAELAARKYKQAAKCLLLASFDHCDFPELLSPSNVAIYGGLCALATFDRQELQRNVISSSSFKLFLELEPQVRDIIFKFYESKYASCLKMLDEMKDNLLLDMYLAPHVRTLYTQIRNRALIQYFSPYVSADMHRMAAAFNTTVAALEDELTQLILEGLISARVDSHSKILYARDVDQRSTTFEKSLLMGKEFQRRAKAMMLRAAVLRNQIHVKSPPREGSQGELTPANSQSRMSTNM
UniProt Q92769: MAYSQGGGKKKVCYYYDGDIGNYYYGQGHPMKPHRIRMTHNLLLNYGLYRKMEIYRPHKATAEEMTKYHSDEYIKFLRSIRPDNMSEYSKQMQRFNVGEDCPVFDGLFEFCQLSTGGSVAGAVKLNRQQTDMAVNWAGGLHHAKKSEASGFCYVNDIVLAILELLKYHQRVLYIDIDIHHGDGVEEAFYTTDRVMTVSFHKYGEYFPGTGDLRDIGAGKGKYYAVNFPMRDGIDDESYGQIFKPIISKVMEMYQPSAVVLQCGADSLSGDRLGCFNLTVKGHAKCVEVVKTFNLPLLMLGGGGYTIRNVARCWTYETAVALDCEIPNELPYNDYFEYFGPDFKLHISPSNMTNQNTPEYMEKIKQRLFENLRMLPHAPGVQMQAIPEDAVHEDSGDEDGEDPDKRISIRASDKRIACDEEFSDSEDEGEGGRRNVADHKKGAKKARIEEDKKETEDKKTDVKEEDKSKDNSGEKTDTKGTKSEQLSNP
UniProt Q9BRP4: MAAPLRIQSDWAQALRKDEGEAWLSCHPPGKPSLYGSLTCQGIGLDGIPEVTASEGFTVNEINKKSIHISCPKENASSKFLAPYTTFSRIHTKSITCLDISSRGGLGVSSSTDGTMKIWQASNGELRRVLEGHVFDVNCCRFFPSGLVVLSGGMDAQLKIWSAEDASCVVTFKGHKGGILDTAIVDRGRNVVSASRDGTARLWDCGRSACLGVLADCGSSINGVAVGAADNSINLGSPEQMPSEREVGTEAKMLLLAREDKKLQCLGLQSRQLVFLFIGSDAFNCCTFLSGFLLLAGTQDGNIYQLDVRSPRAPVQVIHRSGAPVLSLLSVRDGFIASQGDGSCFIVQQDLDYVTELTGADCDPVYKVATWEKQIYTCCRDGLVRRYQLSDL
UniProt Q9UL46: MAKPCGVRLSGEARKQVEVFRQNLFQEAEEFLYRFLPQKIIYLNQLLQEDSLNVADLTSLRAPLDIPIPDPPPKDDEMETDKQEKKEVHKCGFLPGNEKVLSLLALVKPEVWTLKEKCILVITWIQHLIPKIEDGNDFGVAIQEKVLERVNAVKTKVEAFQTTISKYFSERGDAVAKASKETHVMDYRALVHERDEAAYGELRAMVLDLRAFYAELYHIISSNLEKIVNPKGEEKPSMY
UniProt P62318: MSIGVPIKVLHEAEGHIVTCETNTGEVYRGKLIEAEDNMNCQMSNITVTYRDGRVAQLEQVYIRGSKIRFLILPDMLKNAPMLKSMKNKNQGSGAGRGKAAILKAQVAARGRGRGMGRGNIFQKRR

Key:
Experiment in all cases: cross-linking; BS3 crosslinking of high-molecular weight SEC fractions of K562 cytosol (< 1 mg/ml protein, 2:1 w/w BS3 to protein); trypsin and sequential digestion, peptide SEC, LC-MS/MS, xiSEARCH + xiFDR, 5% residue-pair FDR
[1] = molecular target: COPS2 (human (endogenous in K562)) (UniProt P61201)
[2] = molecular target: NCAPH (human (endogenous in K562)) (UniProt Q15003)
[3] = molecular target: IQGAP1 (human (endogenous in K562)) (UniProt P46940)
[4] = molecular target: PSME1 (human (endogenous in K562)) (UniProt Q06323)
[5] = molecular target: SNRPB2 (human (endogenous in K562)) (UniProt P08579)

For GPS1 (from UniProt Q13098 1-491), which binding [1] is on record?
The binding was “binds”.

How did the binding [2] turn out when HDAC2 (from UniProt Q92769 1-488) was run?
Its binding is “binds”.

Which binding [3] does the source give for PAAF1 (from UniProt Q9BRP4 1-392) here?
The binding was “binds”.

With PSME2 (from UniProt Q9UL46 1-239) as the substance, how does the binding [4] read?
Its binding is “binds”.

For SNRPD3 (from UniProt P62318 1-126), which binding [5] is on record?
The binding was “binds”.
